Measured values published in PubChem BioAssay AID2685 (National Center for Advancing Translational Sciences (NCATS), 2010).
The list shows a part of the results. These are further read-outs of the screen, such as a control signal, another cell line or another target. No call is given for them. The list favours compounds with an active or inconclusive main result. Potencies come from curve fits of mixed quality, noted in brackets.

Assay: qHTS Assay for Lipid Storage Modulators in Drosophila S3 Cells;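 on cell number change: cells counted by Cell Tracker Red CMTPX staining in the red channel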
Settings: BODIPY lipid droplet fluorescence, 18-24 h; for cell number change: measured here: cell count max response, cells fed with added oleic acid
Summary of the method: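 Drosophila S3 cells loaded with oleic acid (400 uM, as added) and compounds at several concentrations; lipid droplets imaged by 488-nm laser-scanning cytometry, 500–530 nm intensity and object ratio to cell channel. Percent activity normalized to 20 uM Triacsin C.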

[1] = measured here: cell number channel AC50, cells fed with added oleic acid
[2] = measured here: lipid fluorescence (Fed channel) AC50, cells fed with added oleic acid

SMILES	cell number change	AC50 [1]	AC50 [2]
Cc1cc(C)c2[nH]c(=O)c(CN(Cc3ccco3)C(=O)C3CCCO3)cc2c1 (centres undefined)	-33.6%	20.6 µM [falling, partial curve, poor fit]	1.64 µM [rising, full curve, poor fit]
CCOc1ccc(C(=O)OCC(=O)Nc2ccc3c(c2)OCCO3)cc1OC	15%	2.06 µM [rising, partial curve]	4.11 µM [rising, full curve, poor fit]
COc1ccc(-n2ccc3ccccc32)cc1	45%	0.259 µM [rising, partial curve, poor fit]	
COc1ccccc1NS(=O)(=O)c1cc(C(=O)NCc2ccncc2)ccc1C	33.7%	29.1 µM [rising, single point]	0.58 µM [rising, single point]
CCOC(=O)C1=C(N)Oc2cc(O)ccc2C1c1cccc(Cl)c1 (centres undefined)	-37.8%	23.1 µM [falling, single point]	
CCOc1ccc(NC(=S)Nc2ccc3nsnc3c2)cc1	-15.9%		8.2 µM [falling, partial curve]
N#Cc1ccccc1OCC(=O)OCC(=O)NC1CCCCCC1	-4.45%		29.1 µM [falling, single point]
Clc1cccc(Sc2ccc(-c3ccccn3)s2)c1	-45.7%	23.1 µM [falling, single point]	
Cc1nc2ccc(NC(=O)c3ccc(F)c(S(=O)(=O)N4CCOCC4)c3)cc2s1	-15.9%		
O=C(Nc1ccc(-c2nc3ccccc3s2)c(O)c1)C1=COCCO1	6.55%		
CC(C)CNC(=S)N1CCC(Cc2ccccc2)CC1	49.4%	16.4 µM [rising, partial curve, poor fit]	1.84 µM [rising, partial curve]
CCOC(=O)c1c(C)n(C)c2ccc(OC)c([N+](=O)[O-])c12	9.73%		23.1 µM [rising, partial curve]
CCOC(=O)C(NC(=O)NCc1ccccc1)(OCC)C(F)(F)F (centres undefined)	3.2%	3.26 µM [rising, single point]	
O=C1CSc2ccc(S(=O)(=O)NCc3ccccc3Cl)cc2N1	-31.2%	29.1 µM [falling, single point]	29.1 µM [rising, single point]
Cc1cc(-c2ccc(C)c(S(=O)(=O)NC(C)Cc3ccco3)c2)on1 (centres undefined)	-16.3%		
CC(C)N1CCc2c(sc(NC(=O)c3ccc([N+](=O)[O-])o3)c2C(N)=O)C1	-21.8%		14.6 µM [falling, partial curve, poor fit]
Cc1ccc(S(=O)(=O)Oc2cccc(/C=N/n3cnnc3)c2)cc1	-2.85%		9.2 µM [rising, partial curve]
CCCCCC(=O)Nc1c(-c2cccs2)c(=O)c2ccccc2n1C	-18%		
CCN(CC)S(=O)(=O)c1cccc(NC(=O)C(=O)c2c(-c3ccccc3)cc3ccccn23)c1	50.7%	5.8 µM [rising, full curve]	16.4 µM [rising, partial curve]
CC(C)(OC1OC(CO)C(O)C(O)C1O)[C@H]1Oc2ccc3ccc(=O)oc3c2[C@H]1O (some centres undefined)	-12.8%		0.0259 µM [falling, full curve, poor fit]
O=C(Nc1cccc(O)c1)c1ccc(Br)cc1	-14.4%		29.1 µM [falling, single point]

SMILES	cell number change	AC50 [1]	AC50 [2]
O=C1c2ccccc2C(=O)N1Cc1cc(Cl)c(O)c([N+](=O)[O-])c1	2.84%		16.4 µM [rising, single point]
CC1(C)CC2CC(C)(CN2C(=S)Nc2ccccc2F)C1 (centres undefined)		0.00461 µM [rising, full curve, poor fit]	
O=C(c1ccc(CS(=O)c2ccccc2Cl)o1)N1CCN(c2ccccc2)CC1 (centres undefined)	-21.8%		29.1 µM [falling, single point]
COc1ccccc1NC(=O)c1ccc(S(=O)(=O)NCc2ccco2)cc1	16.7%		
CC(=O)Nc1ccc(SCCC2CCCCN2C)cc1 (centres undefined)			0.58 µM [falling, single point]
COc1cc(CCC(=O)Nc2c(C(=O)N3CCN(c4ccccc4)CC3)oc3ccccc23)on1	19.3%		0.411 µM [rising, partial curve, poor fit]
COc1ccc(S(=O)(=O)Nc2cc3c4c(c2)CC(=O)N4CCC3)cc1C	49.2%	14.6 µM [rising, partial curve, poor fit]	
O=C1CC(C(=O)N2CCc3ccccc32)CN1c1ccccc1 (centres undefined)	-16.7%		
O=C(CSc1nnc(COc2ccc3c(c2)CCCC3)o1)Nc1ccc(F)cc1	-23%		
O=c1[nH]cnc2c1C(c1ccccc1[N+](=O)[O-])c1c(nc[nH]c1=O)O2	7.39%		
CC(C)c1cc(C(=O)O)on1	-17%		4.61 µM [falling, single point]
Cc1ccc(Cl)cc1N(CC(=O)Nc1cccc(N(C)S(C)(=O)=O)c1)S(C)(=O)=O			20.6 µM [falling, partial curve]
O=C(N/N=C/c1cc2ccccc2nc1Cl)/C(=C/c1cccs1)NC(=O)c1ccccc1	-14.4%	1.16 µM [rising, partial curve]	
CC(=O)N=c1sccn1CC(O)c1ccc(Br)cc1 (centres undefined)			0.731 µM [rising, full curve, poor fit]
CCC(=O)N1CCc2cc(S(=O)(=O)NCCC(=O)N3CCc4ccccc4C3)ccc21	-23.2%		0.00517 µM [falling, full curve, poor fit]
CCS(=O)(=O)N1Cc2ccccc2CC1C(=O)Nc1ccc(OC)cc1OC (centres undefined)	-27%		29.1 µM [falling, single point]
C=C(C)COc1ccc(-c2[nH]ncc2-c2ccccc2OC)c(O)c1	-57.2%	13 µM [falling, partial curve, poor fit]	7.31 µM [falling, partial curve]
Cc1ccc(C)c2[nH]c(=O)c(CN(Cc3ccco3)S(=O)(=O)c3ccc4c(c3)OCCO4)cc12	1.92%		0.461 µM [rising, full curve]
CCc1ccc(N(C(=O)CCC(=O)Nc2cc(C)on2)C(C(=O)NC(C)(C)C)c2ccc(OC)cc2)cc1 (centres undefined)	10.8%		29.1 µM [rising, single point]
CCC(CC)NC(=O)COC(=O)c1cc(Br)ccc1Cl	-0.176%	0.651 µM [falling, full curve, poor fit]	
CN(c1cccc(NC(=O)c2ccc(CN3CCc4ccccc4C3)cc2)c1)S(C)(=O)=O	-38.6%	14.6 µM [falling, partial curve]	29.1 µM [falling, single point]

Reformatted as a markdown table: five of the compounds above

| SMILES | cell number change | AC50 [1] | AC50 [2] |
| --- | --- | --- | --- |
| COc1ccc(S(=O)(=O)Nc2cc3c4c(c2)CC(=O)N4CCC3)cc1C | 49.2% | 14.6 µM [rising, partial curve, poor fit] |  |
| O=C1CC(C(=O)N2CCc3ccccc32)CN1c1ccccc1 (centres undefined) | -16.7% |  |  |
| O=C(CSc1nnc(COc2ccc3c(c2)CCCC3)o1)Nc1ccc(F)cc1 | -23% |  |  |
| O=c1[nH]cnc2c1C(c1ccccc1[N+](=O)[O-])c1c(nc[nH]c1=O)O2 | 7.39% |  |  |
| CC(C)c1cc(C(=O)O)on1 | -17% |  | 4.61 µM [falling, single point] |

Next part:

SMILES	cell number change	AC50 [1]	AC50 [2]
Cn1c(SCc2n[nH]c(=S)n2-c2ccccc2)nnc1-c1ccccc1		0.13 µM [rising, full curve, poor fit]	0.146 µM [rising, full curve]
Cc1ccc(NC(=O)CSc2nc(C)c(Cc3ccccc3)c(=O)[nH]2)cc1C	32.4%		6.51 µM [falling, single point]
COc1ccccc1CNC(=O)c1ccc2nc(N3CCOCC3)sc2c1	-2.69%		6.51 µM [rising, single point]
Cc1cc(C)cc(NC(=O)COC(=O)c2cc(=O)[nH]c(=O)[nH]2)c1	1.27%		
CCN(CC)c1ccc(NC(=O)/C=C/c2cc(Br)ccc2OC)cc1	-26.8%		18.4 µM [falling, single point]
O=C(O)C1CC=CCC1C(=O)NCc1ccccc1 (centres undefined)	-103%	18.4 µM [falling, single point]	
CCn1c(-c2csc(-c3ccccc3)n2)n[nH]c1=S	-14.2%		0.731 µM [rising, full curve]
CO/N=C/C(=N\Nc1ccc(OC)cc1)C(=O)c1ccc(OC)cc1			6.51 µM [rising, partial curve]
Cc1ccc(CNC(=O)C2CCCN(S(=O)(=O)c3ccc(-n4cnnn4)cc3)C2)cc1 (centres undefined)	56.4%	13 µM [rising, partial curve]	
NCCCn1c(C(=O)c2cc(Cl)c(N)c(Cl)c2)c2ccc([N+](=O)[O-])cc2[n+]1[O-]	-25.5%		
COc1ccc(-c2nnc(SC(C)C(=O)Nc3cccc(Cl)c3)o2)cc1 (centres undefined)	-2.49%		16.4 µM [rising, single point]
O=C(O)CCC(=O)N1CCCC1	37%	6.51 µM [rising, full curve, poor fit]	
COc1cc([N+](=O)[O-])cc(/C=N/NC(=O)c2ccc(C)nc2)c1O	-6.23%		
COC(=O)c1ccc(NC(=O)c2cccc(NC(=O)c3ccccc3)c2)cc1	25.4%		
CCOC(=O)CNC(=O)c1cc2c(=O)[nH]c3ccc(C)cc3c2s1	42.6%	0.731 µM [rising, full curve]	
CCCN(CCC)S(=O)(=O)c1ccc(C(=O)NCc2ccco2)cc1	-37.5%	23.1 µM [falling, single point]	29.1 µM [falling, single point]
c1ccc(-c2ccccc2OCCN2CCOCC2)cc1	-0.733%		29.1 µM [rising, single point]
CC[C@@]12C(=O)N(c3cccc(C)c3)C(=O)N1[C@H](c1ccc(OC)cc1)[C@@H]1C(=O)N(C(C)(C)C)C(=O)[C@@H]12	13.5%		5.8 µM [rising, single point]
NC(=O)c1cccc2c1-c1ccccc1/C2=N/NC(N)=S	3.9%		5.8 µM [falling, full curve]
